For this data set, the system named is BAF complex subunits and histone proteins. Description: Mass spectrometry proteomics of purified HA-SS18 WT and HA-SS18-SSX1 complexes (Tables 5A-5E). Details: species or system human. As to conditions: HEK-293T.
The mark [1] stands for this setting: HA-SS18SSX1_CHR_peptides: protein identified in the HA-SS18-SSX1 purification from solubilized chromatin (CHR).
The mark [2] stands for this setting: HA-SS18SSX1 purification, NE (soluble nuclear extract) fraction, peptides per identified protein.
Where [3] appears, read: HA-SS18WT_CHR_peptides: HA-SS18 WT purification from nuclease-treated solubilized chromatin (CHR), label = protein identified.
Setting [4] is: HA-SS18WT_NE_peptides: HA-SS18 WT complexes purified from nuclear extract (NE), label = protein identified (Gene Symbol).
Setting [5] is: HA-SS18WT_CHR_peptides: protein identified in HA-SS18 WT BAF complex purification from nuclease-treated solubilized chromatin (CHR).
Where [6] appears, read: HA-SS18WT_NE_peptides: proteins co-purified with HA-SS18 WT from nuclear extract (NE).

Six molecules from patent US20250283871A1, “COMPOSITIONS AND METHODS FOR MODULATING THE INTERACTION BETWEEN SS18-SSX FUSION ONCOPROTEIN AND NUCLEOSOMES” (Dana-Farber Cancer Institute, Inc., priority 2020, published 2025) can be followed below.

B1: HNRNPF (protein, UniProt P52597 1-415, looked up)
Heterogeneous nuclear …: MMLGPEGGEGFVVKLRGLPWSCSVEDVQNFLSDCTIHDGAAGVHFIYTREGRQSGEAFVELGSEDDVKMALKKDRESMGHRYIEVFKSHRTEMDWVLKHSGPNSADSANDGFVRLRGLPFGCTKEEIVQFFSGLEIVPNGITLPVDPEGKITGEAFVQFASQELAEKALGKHKERIGHRYIEVFKSSQEEVRSYSDPPLKFMSVQRPGPYDRPGTARRYIGIVKQAGLERMRPGAYSTGYGGYEEYSGLSDGYGFTTDLFGRDLSYCLSGMYDHRYGDSEFTVQSTTGHCVHMRGLPYKATENDIYNFFSPLNPVRVHIEIGPDGRVTGEADVEFATHEEAVAAMSKDRANMQHRYIELFLNSTTGASNGAYSSQVMQGMGVSAAQATYSGLESQSVSGCYGAGYSGQNSMGGYD
For the molecule B1, the “Total (total peptides)” value under setting [1] stood at 6 and the “Total (total peptides)” value under setting [2] was determined as 5. The “Unique (unique peptides)” value runs as follows: under setting [1], 5; under setting [2], 5. For the same molecule, the “Total (peptides)” value reads like this: under setting [3], 3; under setting [4], 4. The “Unique (peptides)” value reads like this: under setting [3], 3; under setting [4], 4.

B2: RBMX (protein, UniProt P38159 1-391, looked up)
RNA-binding motif protein, X …: MVEADRPGKLFIGGLNTETNEKALEAVFGKYGRIVEVLLMKDRETNKSRGFAFVTFESPADAKDAARDMNGKSLDGKAIKVEQATKPSFESGRRGPPPPPRSRGPPRGLRGGRGGSGGTRGPPSRGGHMDDGGYSMNFNMSSSRGPLPVKRGPPPRSGGPPPKRSAPSGPVRSSSGMGGRAPVSRGRDSYGGPPRREPLPSRRDVYLSPRDDGYSTKDSYSSRDYPSSRDTRDYAPPPRDYTYRDYGHSSSRDDYPSRGYSDRDGYGRDRDYSDHPSGGSYRDSYESYGNSRSAPPTRGPPPSYGGSSRYDDYSSSRDGYGGSRDSYSSSRSDLYSSGRDRVGRQERGLPPSMERGYPPPRDSYSSSSRGAPRGGGRGGSRSDRGGGRSRY
B2: under setting [1], the “Total (total peptides)” value is given as 6 and the “Unique (unique peptides)” value is 5. Moreover, under setting [3], the “Total (peptides)” value was 4 and the “Unique (peptides)” value turned out to be 4.

B3: ZNF280C (protein, UniProt Q8ND82 1-737, looked up)
Zinc finger protein 280C: MDDDKPFQPKNISKMAELFMECEEEELEPWQKKVEETQDEDDDELIFVGEISSSKPAISNILNRGHSSSSSKGIKSEPHSPGIPEIFRTASQRCRDPPSNPVAASPRFHLVSKSSQSSVTVENASKPDFTKNSQVGSDNSSILLFDSTQESLPPSQDIPAIFREGMKNTSYVLKHPSTSKVNSVTPKKPKTSEDVPQINPSTSLPLIGSPPVTSSQVMLSKGTNTSSPYDAGADYLRACPKCNVQFNLLDPLKYHMKHCCPDMITKFLGVIVKSERPCDEDKTDSETGKLIMLVNEFYYGRHEGVTEKEPKTYTTFKCFSCSKVLKNNIRFMNHMKHHLELEKQNNESWENHTTCQHCYRQYPTPFQLQCHIESTHTPHEFSTICKICELSFETEHILLQHMKDTHKPGEMPYVCQVCQFRSSTFSDVEAHFRAAHENTKNLLCPFCLKVSKMATPYMNHYMKHQKKGVHRCPKCRLQFLTSKEKAEHKAQHRTFIKPKELEGLPPGAKVTIRASLGPLQSKLPTAPFGCAPGTSFLQVTPPTSQNTTARNPRKSNASRSKTSKLHATTSTASKVNTSKPRGRIAKSKAKPSYKQKRQRNRKNKMSLALKNIRCRRGIHKCIECHSKIKDFASHFSIYIHCSFCKYNTNCNKAFVNHMMSSHSNHPGKRFCIFKKHSGTLRGITLVCLKCDFLADSSGLDRMAKHLSQRKTHTCQVIIENVSKSTSTSEPTTGCSLK
Take B3: under setting [1], the “Total (total peptides)” value turned out to be 6 and the “Unique (unique peptides)” value was 5.

B4: NGDN (protein, UniProt Q8NEJ9 2-315, looked up)
Neuroguidin: AALGVLESDLPSAVTLLKNLQEQVMAVTAQVKSLTQKVQAGAYPTEKGLSFLEVKDQLLLMYLMDLTHLILDKASGGSLQGHDAVLRLVEIRTVLEKLRPLDQKLKYQIDKLIKTAVTGSLSENDPLRFKPHPSNMMSKLSSEDEEEDEAEDDQSEASGKKSVKGVSKKYVPPRLVPVHYDETEAEREKKRLERAKRRALSSSVIRELKEQYSDAPEEIRDARHPHVTRQSQEDQHRINYEESMMVRLSVSKREKGRRKRANVMSSQLHSLTHFSDISALTGGTVHLDEDQNPIKKRKKIPQKGRKKKGFRRRR
Consider B4, for which the “Total (total peptides)” value came to 6 under setting [1] and 2 under setting [5]. In addition, the “Unique (unique peptides)” value under setting [1] was determined as 5 and the “Unique (unique peptides)” value under setting [5] turned out to be 2.

B5: IMMT (protein, UniProt Q16891 34-758, looked up)
MICOS complex subunit MIC60: STSGSSGLTTGKIAGAGLLFVGGGIGGTILYAKWDSHFRESVEKTIPYSDKLFEMVLGPAAYNVPLPKKSIQSGPLKISSVSEVMKESKQPASQLQKQKGDTPASATAPTEAAQIISAAGDTLSVPAPAVQPEESLKTDHPEIGEGKPTPALSEEASSSSIRERPPEEVAARLAQQEKQEQVKIESLAKSLEDALRQTASVTLQAIAAQNAAVQAVNAHSNILKAAMDNSEIAGEKKSAQWRTVEGALKERRKAVDEAADALLKAKEELEKMKSVIENAKKKEVAGAKPHITAAEGKLHNMIVDLDNVVKKVQAAQSEAKVVSQYHELVVQARDDFKRELDSITPEVLPGWKGMSVSDLADKLSTDDLNSLIAHAHRRIDQLNRELAEQKATEKQHITLALEKQKLEEKRAFDSAVAKALEHHRSEIQAEQDRKIEEVRDAMENEMRTQLRRQAAAHTDHLRDVLRVQEQELKSEFEQNLSEKLSEQELQFRRLSQEQVDNFTLDINTAYARLRGIEQAVQSHAVAEEEARKAHQLWLSVEALKYSMKTSSAETPTIPLGSAVEAIKANCSDNEFTQALTAAIPPESLTRGVYSEETLRARFYAVQKLARRVAMIDETRNSLYQYFLSYLQSLLLFPPQQLKPPPELCPEDINTFKLLSYASYCIEHGDLELAAKFVNQLKGESRRVAQDWLKEARMTLETKQIVEILTAYASAVGIGTTQVQPE
Consider B5, for which, under setting [1], the “Total (total peptides)” value came out at 6 and the “Unique (unique peptides)” value came out at 6. Also, under setting [3], the “Total (peptides)” value turned out to be 4 and the “Unique (peptides)” value came to 4. For the same molecule, under setting [4], the “Total (peptides)” value was found to be 15 and the “Unique (peptides)” value was 13. In addition, under setting [6], the “Total (peptides)” value turned out to be 1 and the “Unique (peptides)” value was found to be 1.

B6: UTP14C (protein, UniProt Q5TAP6 1-766, looked up)
U3 small nucleolar …: MNVNQVAENLALSHQEELVDLPKNYPLSENEDEGDSDGERKHQKLLEAIISLDGKNRRKLAERSEASLKVSEFSVSSEGSGEKLGLADLLEPVKTSSSLATVKKQLNRVKSKKVVELPLNKEKIEQIHREVAFSKTSQVLSKWDPIILKNQQAEQLVFPLGKEQPAIAPIEHALSGWKARTPLEQEIFNLLHKNKQPVTDPLLTPMEKASLQAMSLEEAKMHRAELQRARALQSYYEAKARKEKKIKSKKYHKVVKKGKAKKALKEFEQLQKVNPTVALEEMEKIENARMMERMSLKHQNSGKWAKSKAIMAKYDLEARQAMQEQLAKNKELTQKLQVASESEEEEGGTEVEELLVPHVANEVQMNVDGPNPWMFRSCTSDTKEAATQEDPEQVPELAAHEVSASEAEERPVAEEEILLREFEERQSLRKRSELNQDAEPASSQETKDSSSQEVLSELRALSQKLKEKHQSRKQKASSEGTVPQVQREEPAPEEAEPLLLQRSERVQTLEELEELGKEDCFQNKELPRPVLEGQQSERTPNNRPDAPKEKKEKEQLINLQNFLTTQSPSVRSLAVPTIIEELEDEEERDQRQMIKEAFAGDDVIRDFLKEKREAVEASKPKDVDLTLPGWGEWGGVGLKPSAKKRRQFLIKAPEGPPRKDKNLPNVIISEKRNIHAAAHQVQVLPYPFTHHRQFERTIQTPIGSTWNTQRAFQKLTTPKVVTKPGHIIKPIKAEDVGYQSSSRSDLPVIQRNPKRITTRHNKEEKL
Consider B6, for which, under setting [1], the “Total (total peptides)” value is listed as 6 and the “Unique (unique peptides)” value was found to be 4. Besides, under setting [5], the “Total (total peptides)” value was determined as 2 and the “Unique (unique peptides)” value turned out to be 2.
